# Measurements as given in PubChem BioAssay AID485314 (National Center for Advancing Translational Sciences (NCATS), 2010).
# Among all 340,000 compounds or so, about 4,500 (1.3%) were called active. Inconclusive results, whose numbers are uncertain, are shown with a selection of clear calls. Calls come from the whole dose curve; as a rule, active = well fitted inhibition curve with a large enough effect; inconclusive = small, poorly fitted or top-dose-only effect, or another doubt; inactive = no such curve, though single readings can be large or run the other way. Potencies of inconclusive entries are doubtful fits and often do not repeat.
# Target: DNA polymerase beta (Homo sapiens) (UniProt P06746)
# Test: qHTS Assay for Inhibitors of DNA Polymerase Beta
# Conditions: Pol beta primer extension/strand displacement, fluorescence kinetic; activity change, negative = inhibition: at 114 µM (top of the series)
# Outline: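 Preincubation: enzyme (10 nM) with compound, 15 min, RT. Reaction: substrate added to 50 nM final. Reads: 0 and 10 min. Analysis: normalized, Hill fit.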
# % is set by controls: 0 for no effect and ±100 for the full control effect; potency is the fitted concentration of half-maximal effect.
SMILES,Potency,"activity change, negative = inhibition"
COc1ccc(C(=O)Nc2ccc(C(=O)NCCc3ccccc3)cc2)cc1,"inconclusive: 3.16 µM [inhibitor, full curve]",–
O=C(c1ccc(F)cc1)C1CCN(C(=O)NC2CCCCC2)CC1,"inconclusive: 2.82 µM [inhibitor, full curve, poor fit]",–
COc1cccc(CNC(=O)C2CCN(Cc3cc4ccccc4n3Cc3ccc(C)cc3)CC2)c1,–,inactive: -26.2%
CC(=O)c1cc(NC(=O)c2ccccc2)c(=O)oc1C,"inconclusive: 50.1 µM [inhibitor, partial curve]",–
CSc1sc(C(=O)O)c2c1C(=O)CCC2,"inconclusive: 31.6 µM [inhibitor, full curve]",–
CCOC(=O)c1ccc(-c2nnc(-c3ccc(Cl)cc3Cl)o2)cc1,"inconclusive: 0.1 µM [inhibitor, full curve, poor fit]",–
COc1ccc(-c2c(-c3ccc(O)cc3O)n[nH]c2C)cc1OC,"inconclusive: 3.98 µM [inhibitor, partial curve, poor fit]",–
COc1ccc2cc3c(N)nn(C(=O)c4cccc([N+](=O)[O-])c4)c3nc2c1,"inconclusive: 5.01 µM [inhibitor, partial curve]",–
CCOC(=O)c1c(NC(=O)COC(=O)c2ccccn2)sc2c1CCC2,"inconclusive: 39.8 µM [inhibitor, single point]",–
CCOC(=O)CCc1c(C)c2ccc(OCc3cc([N+](=O)[O-])ccc3OC)c(C)c2oc1=O,"inconclusive: 63.1 µM [inhibitor, partial curve, poor fit]",–
COc1ccccc1N(CC(O)Cn1c2ccccc2c2ccccc21)S(=O)(=O)c1ccccc1 (stereo unspecified),"inconclusive: 89.1 µM [inhibitor, single point]",–
O=C1NN(c2ccc(Cl)c(Cl)c2)C(=O)/C1=C/c1cccc(OC(=O)c2cccs2)c1,–,inactive: -26.4%
Cc1ccc(NC(=O)COC(=O)CCC(=O)c2ccc(C(C)(C)C)cc2)c([N+](=O)[O-])c1,"inconclusive: 89.1 µM [inhibitor, single point]",–
CCOC(=O)c1c(N)n(C2CC(C)(C)NC(C)(C)C2)c2nc3ccccc3nc12,active: 28.2 µM,–
COc1ccc(-n2nc3c(c2NC(C)=O)CS(=O)(=O)C3)cc1,"inconclusive: 28.2 µM [inhibitor, single point]",–
CS(=O)(=O)N(CC(=O)NCCSCc1ccccc1)c1cc(C(F)(F)F)ccc1Cl,"inconclusive: 0.501 µM [inhibitor, partial curve]",–
COc1cc(/C=C2\C(=N)N3N=CSC3=NC2=O)ccc1OS(=O)(=O)c1ccccc1,–,inconclusive: -37.6% [inhibitor]
Cc1ccccc1NC(=O)Cn1c(=O)n(Cc2ccc3c(c2)OCO3)c(=O)c2ccc(C(=O)NC3CCCCC3)cc21,"inconclusive: 89.1 µM [inhibitor, single point]",–
CCN1C(=NCc2ccc(OC)cc2)N[C@@H](c2ccccc2)[C@H](C(=O)OC)[C@H]1C,"inconclusive: 89.1 µM [inhibitor, single point]",–
Cc1ccc2cccc(NC(=O)c3ccc(-c4cccc(Cl)c4Cl)o3)c2n1,–,inactive: 19.5%
Cc1ccc(Cn2c(/C=C/c3ccco3)nc3ccccc32)cc1,"inconclusive: 56.2 µM [inhibitor, single point]",–

SMILES,Potency,"activity change, negative = inhibition"
CS(=O)(=O)Nc1ccc(C(=O)NCCSCc2ccco2)cc1,–,inactive: -20.7%
C/C(=N/Nc1ncc(Br)cn1)c1ccc(Br)cc1,–,inactive: 1.2%
Cc1ccc(OCc2nnc(SCC(=O)Nc3ccccc3C(C)C)o2)cc1,–,inactive: -13.7%
CC(=O)c1ccc(OCC(O)CN2CCN(CCN3C(=O)c4cccc5cccc(c45)C3=O)CC2)cc1 (stereo unspecified),active: 14.1 µM,–
Fc1ccccc1Cn1nnc2c(NCCc3ccccn3)ncnc21,"inconclusive: 0.112 µM [inhibitor, full curve, poor fit]",–
C=CCn1c(C)nnc1SCC(=O)NC1CCCCC1,"inconclusive: 0.398 µM [inhibitor, full curve, poor fit]",–
O=C(Nc1nccs1)c1cc(-c2ccccn2)nc2c(Cl)cccc12,"inconclusive: 28.2 µM [inhibitor, full curve]",–
COC(=O)CCN1CCC(c2cc(-c3cccc(C(F)(F)F)c3)n[nH]2)CC1,–,inconclusive: -30.3% [inhibitor]
COc1ccc(NC(=O)Cn2nnc(C(=O)NCc3ccc4c(c3)OCO4)c2N)c(OC)c1,"inconclusive: 89.1 µM [inhibitor, single point]",–
Cc1nonc1C(=O)N/N=C/c1ccc(O)c(O)c1,–,inactive: -16.3%
CC1=C(C(=O)OCc2ccccc2)C(c2cccs2)NC(=O)N1CCCC(=O)O (stereo unspecified),"inconclusive: 70.8 µM [inhibitor, single point]",–
CCNC(=O)c1ccc(CSc2nc3cccnc3n2Cc2ccc(OC)cc2)cc1,–,inactive: 3.56%
COc1ccccc1CNCCCCCCNCCCCCCCCNCCCCCCNCc1ccccc1OC,"inconclusive: 39.8 µM [inhibitor, single point]",–
Cn1c(SCC(=O)N(C2CCCCC2)C2CCCCC2)nnc1-c1cccs1,"inconclusive: 1.58 µM [inhibitor, full curve]",–
CC(C)(C)C(=O)N(Cc1ccccc1)c1ccccn1,"inconclusive: 1.58 µM [inhibitor, full curve, poor fit]",–
Nc1nc(Cl)cc(Nc2ccccc2Cl)n1,–,inconclusive: -35.2% [inhibitor]
COc1cccc(NC(=O)N(Cc2c[nH]c3ccccc23)C2CCCCCC2)c1,"inconclusive: 5.62 µM [inhibitor, full curve, poor fit]",–
CC1(C)CC(=O)/C(=C(/O)Cc2ccccc2)C(=NCCc2ccccc2)C1,"inconclusive: 89.1 µM [inhibitor, single point]",–
COc1cccc(-c2nc(SCC(=O)Nc3nc(-c4ccccc4)c(C)s3)[nH]c(=O)c2C#N)c1,"inconclusive: 100 µM [inhibitor, partial curve, poor fit]",–
CC(=O)Cc1cc(O)c2ccccc2c1OC(=O)c1ccccc1,"inconclusive: 3.16 µM [inhibitor, single point]",–

# Quoted at random: 2 records from the list
SMILES,Potency,"activity change, negative = inhibition"
Cc1nonc1C(=O)N/N=C/c1ccc(O)c(O)c1,–,inactive: -16.3%
CC(C)(C)C(=O)N(Cc1ccccc1)c1ccccn1,"inconclusive: 1.58 µM [inhibitor, full curve, poor fit]",–
